The record followed here is patent CN114230662A.

Amino acid sequences for entries named in this document (tags omitted). Residues count along the entry.
UniProt Q08722, residues 19-323: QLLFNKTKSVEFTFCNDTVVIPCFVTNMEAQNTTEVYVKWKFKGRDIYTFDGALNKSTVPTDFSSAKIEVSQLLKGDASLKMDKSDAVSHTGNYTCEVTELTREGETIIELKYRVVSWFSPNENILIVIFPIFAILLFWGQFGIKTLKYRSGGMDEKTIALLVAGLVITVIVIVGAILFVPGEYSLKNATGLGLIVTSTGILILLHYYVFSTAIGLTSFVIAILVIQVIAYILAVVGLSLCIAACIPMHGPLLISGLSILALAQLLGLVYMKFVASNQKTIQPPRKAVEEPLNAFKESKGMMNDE

Assay [1] has as its target human CD47 on cells (Raji-luc, CCRF-CEM, Jurkat, CHO/K1-hCD47) (human) (UniProt Q08722). The experiment in a line: flow cytometry on CHO/K1-hCD47 cells.
The target is the same in assay [2]. Nature of the assay: flow cytometry on Raji-luc and Jurkat cells. A general note: Flow cytometry measures light scatter and fluorescence of single cells or particles in a stream.

No constants are given. Whether binding was seen depends on the method and setting. Some results given as binding are weak or reduced against the parent protein; the word gives no strength.

B1: AB12W3 (antibody, human IgG4 S228P, kappa, V domains shown)
VH: EVQLVQSGAEVVKPGATVKISCKASGYSFTDYFMTWMKQSPGKSLEWIGRINPYNGETFYNQKFQGKATLTVDKSSTTAHMELSSLRSEDSAVYYCGRGGTAGTDYWGQGTLLTVSS
VL: DVLLTQSPLSLPVTLGQPASISCRSSQSVVRSNGNTYLEWYLQKPGQSPRLLINKVSRRFSGVPDRFSGSGSGSEFTLKISRVEAEDVGIYYCFQGSHVPYTFGQGTKLEIKR
As to B1, the binding result in assay [1] and in assay [2] was “binds” throughout.

B2: AB12W4 (antibody, human IgG4 S228P, kappa, V domains shown)
VH: QIQLVQSGAEVVKPGASVKISCKASGYTFTDYYINWVKQAPGQRLEWIGWIYPGSGNTKHNQKFQGKATLTVDTSSSTAYMELSSLRSEDTAVYFCARRGTYYYGSSSDGFPYWGQGTLVTVSS
VL: QIVLTQSPATMSASPGERVTISCRASSSVYYMYWYQQKPGQSPRPWIYRTSNLATGVPARFSGSGSGTSYSLTISSMEPEDFATYYCQQYHSYPLTFGQGTKLEIKR
Turning to B2, in assay [2], the binding result is reported as “binds”.
